# Laboratory results: PMC4080449
# Chains of the proteins cited; added tags and fusions are not shown. Lines headed by an entry give the natural chain unless they say otherwise; changes in a name come on top.
# UniProt Q61115: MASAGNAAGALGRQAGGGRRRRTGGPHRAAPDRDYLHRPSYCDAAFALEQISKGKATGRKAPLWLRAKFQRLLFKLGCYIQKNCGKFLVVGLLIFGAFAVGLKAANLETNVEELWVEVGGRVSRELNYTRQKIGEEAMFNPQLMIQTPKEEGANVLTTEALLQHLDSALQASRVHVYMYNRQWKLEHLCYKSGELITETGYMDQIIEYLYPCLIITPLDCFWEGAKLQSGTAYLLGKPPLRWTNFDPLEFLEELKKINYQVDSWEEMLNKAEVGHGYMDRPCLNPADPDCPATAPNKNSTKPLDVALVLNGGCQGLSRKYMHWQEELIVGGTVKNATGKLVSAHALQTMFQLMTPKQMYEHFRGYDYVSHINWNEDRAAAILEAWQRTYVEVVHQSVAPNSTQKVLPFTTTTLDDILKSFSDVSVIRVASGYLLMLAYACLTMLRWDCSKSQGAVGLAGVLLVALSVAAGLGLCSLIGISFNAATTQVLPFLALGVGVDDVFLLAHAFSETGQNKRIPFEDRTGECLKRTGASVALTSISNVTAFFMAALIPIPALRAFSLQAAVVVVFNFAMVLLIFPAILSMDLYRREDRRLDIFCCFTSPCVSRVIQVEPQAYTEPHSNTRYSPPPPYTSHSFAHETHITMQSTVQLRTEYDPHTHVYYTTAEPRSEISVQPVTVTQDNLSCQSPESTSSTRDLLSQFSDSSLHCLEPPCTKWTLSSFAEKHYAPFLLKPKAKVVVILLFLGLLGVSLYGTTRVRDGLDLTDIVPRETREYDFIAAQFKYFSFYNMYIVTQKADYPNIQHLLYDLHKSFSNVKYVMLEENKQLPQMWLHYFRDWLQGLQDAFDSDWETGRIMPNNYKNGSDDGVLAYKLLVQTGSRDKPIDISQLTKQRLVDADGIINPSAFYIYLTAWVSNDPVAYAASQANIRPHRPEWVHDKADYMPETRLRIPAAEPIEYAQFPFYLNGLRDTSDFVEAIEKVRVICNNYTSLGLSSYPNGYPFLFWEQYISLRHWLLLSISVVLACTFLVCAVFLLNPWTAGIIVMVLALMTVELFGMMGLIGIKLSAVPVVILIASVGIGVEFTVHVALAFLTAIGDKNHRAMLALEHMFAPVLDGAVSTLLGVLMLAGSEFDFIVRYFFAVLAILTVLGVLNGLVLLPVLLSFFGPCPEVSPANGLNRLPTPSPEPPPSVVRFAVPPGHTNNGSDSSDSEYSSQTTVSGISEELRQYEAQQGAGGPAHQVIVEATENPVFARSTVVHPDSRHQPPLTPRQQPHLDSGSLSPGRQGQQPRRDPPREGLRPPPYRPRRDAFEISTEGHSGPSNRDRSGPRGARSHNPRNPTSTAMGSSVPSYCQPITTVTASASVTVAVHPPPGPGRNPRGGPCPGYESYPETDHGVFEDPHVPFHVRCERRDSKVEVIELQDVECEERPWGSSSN
# UniProt Q9HAU4: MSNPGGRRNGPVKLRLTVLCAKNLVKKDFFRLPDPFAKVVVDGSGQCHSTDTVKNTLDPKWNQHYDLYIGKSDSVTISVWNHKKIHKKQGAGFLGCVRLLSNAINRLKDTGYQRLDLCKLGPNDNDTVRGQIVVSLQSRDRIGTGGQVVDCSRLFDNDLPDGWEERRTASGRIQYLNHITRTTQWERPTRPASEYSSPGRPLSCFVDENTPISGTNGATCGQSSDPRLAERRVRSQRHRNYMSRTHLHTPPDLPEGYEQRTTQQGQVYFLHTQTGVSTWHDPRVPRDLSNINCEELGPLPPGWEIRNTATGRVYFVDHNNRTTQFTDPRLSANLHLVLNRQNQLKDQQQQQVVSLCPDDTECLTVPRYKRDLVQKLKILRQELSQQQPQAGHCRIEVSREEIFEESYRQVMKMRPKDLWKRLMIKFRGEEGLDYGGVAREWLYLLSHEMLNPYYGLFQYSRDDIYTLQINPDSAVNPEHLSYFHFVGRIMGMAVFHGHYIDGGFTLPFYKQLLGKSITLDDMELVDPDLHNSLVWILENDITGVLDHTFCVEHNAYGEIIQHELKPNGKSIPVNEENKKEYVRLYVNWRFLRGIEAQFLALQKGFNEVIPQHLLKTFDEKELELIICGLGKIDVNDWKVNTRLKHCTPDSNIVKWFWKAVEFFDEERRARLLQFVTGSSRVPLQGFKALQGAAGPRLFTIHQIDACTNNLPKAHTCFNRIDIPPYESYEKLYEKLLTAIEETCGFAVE
# No constants are given. Whether binding was seen depends on the method and setting. Binding seen in cells or lysates may run through a third protein.
# Target: Δ2PY-CFP (mouse) (UniProt Q61115)
# Assay: FRET or BRET; CFP/YFP sensitized-emission FRET (N-FRET) by confocal microscopy in transfected MEFs; also with ShhN or control conditioned medium for 2 hr
substance,measurement,value
Smurf2-YFP (from UniProt Q9HAU4 1-748) (enzyme),binding,no binding
